# Test results taken from PubChem BioAssay AID248 (DTP/NCI, 2004).
# The list is a part of this screen's results and no random one: it is rich in T/C values a quarter to a half above the control, in often repeated tests (any T/C) and in doses without a T/C. Further doses and runs are listed elsewhere. T/C gives the treated animals as a percentage of the vehicle group. Some doses have a count of surviving animals in place of a T/C: the source holds a T/C of zero for them, seemingly a mark for toxic or unscored doses. Some survivor counts are full or nearly so, which does not show that the dose was tolerated: the source hardly ever lists a survival T/C far under the control, and the zero likely stands for such cases as well. Survivors were counted at the toxicity check, usually on the fifth day, unless a day is given; later deaths do not show. Schedules are NCI's codes, taken here to give the interval after Q, in days (D) or hours (H), and the number of doses after X. Some schedules carry Z or #; the key to these is not given. Some entries hold several experiments; the results are listed from low to high. For survival time, the PubChem record calls one and a half times the control and up active, and a quarter to a half above the control has no call in these data; cut-offs in other NCI protocols can differ. Some T/C values carry the count of animals alive at the toxicity check (mostly the fifth day); where none is given, no animal had died by that day. Brackets with × count equal records among those shown.
# Tested on: L1210 leukemia ip in BDF1 mice, survival T/C
# Experiment: NCI In Vivo Anticancer Drug Screen. Data for tumor model L1210 Leukemia (intraperitoneal) in B6D2F1 (BDF1) mice
# Details: higher T/C = longer survival
# [1] = T/C endpoint: median survival time, dose: 50.0 mg/kg/injection, schedule: Q01DX009 (ip), vehicle: saline
compound,measurement,setting,value
N=[N+]=CC(=O)OCC(N)C(=O)O (stereo unspecified),T/C,"T/C endpoint: mean survival time, dose: 64.0 mg/kg/injection, schedule: Q## X008 (ip), vehicle: saline",138 % of control
same,T/C,"T/C endpoint: mean survival time, dose: 64.0 mg/kg/injection, schedule: Q## X024 (oral), vehicle: saline",139 % of control
same,T/C,"T/C endpoint: mean survival time, dose: 66.0 mg/kg/injection, schedule: Q01DX001 (ip), vehicle: saline",134 % of control
same,T/C,"T/C endpoint: mean survival time, dose: 80.0 mg/kg/injection, schedule: Q04DX002 (ip), vehicle: saline",128 % of control
same,survivor count,"T/C endpoint: mean survival time, dose: 94.0 mg/kg/injection, schedule: Q## X004 (ip), vehicle: saline",6 of 10
same,survivor count,"T/C endpoint: mean survival time, dose: 98.0 mg/kg/injection, schedule: Q01DX001 (ip), vehicle: saline",4 of 9
same,survivor count,"T/C endpoint: mean survival time, dose: 100.0 mg/kg/injection, schedule: Q01DX001 (ip), vehicle: saline",2 of 6
same,survivor count,"T/C endpoint: mean survival time, dose: 112.0 mg/kg/injection, schedule: Q01DX001 (ip), vehicle: saline",0 of 6
same,survivor count,"T/C endpoint: mean survival time, dose: 112.0 mg/kg/injection, schedule: Q07DX003 (ip), vehicle: saline",0 of 6
same,survivor count,"T/C endpoint: mean survival time, dose: 128.0 mg/kg/injection, schedule: Q01DX001 (ip), vehicle: saline",2 of 10
same,survivor count,"T/C endpoint: mean survival time, dose: 128.0 mg/kg/injection, schedule: Q01DX001 (oral), vehicle: saline",6 of 10
same,survivor count,"T/C endpoint: mean survival time, dose: 128.0 mg/kg/injection, schedule: Q01DX006 (iv), vehicle: saline",0 of 6
same,survivor count,"T/C endpoint: mean survival time, dose: 128.0 mg/kg/injection, schedule: Q04DX003 (oral), vehicle: saline",0 of 8
same,survivor count,"T/C endpoint: mean survival time, dose: 128.0 mg/kg/injection, schedule: Q## X002 (ip), vehicle: saline",5 of 10
same,survivor count,"T/C endpoint: mean survival time, dose: 128.0 mg/kg/injection, schedule: Q## X003 (ip), vehicle: saline",6 of 10
same,survivor count,"T/C endpoint: mean survival time, dose: 128.0 mg/kg/injection, schedule: Q## X003 (oral), vehicle: saline",4 of 10 and 5 of 10
same,survivor count,"T/C endpoint: mean survival time, dose: 135.0 mg/kg/injection, schedule: Q01DX001 (ip), vehicle: saline",3 of 10
same,survivor count,"T/C endpoint: mean survival time, dose: 192.0 mg/kg/injection, schedule: Q03DX006 (ip), vehicle: saline",0 of 6
same,survivor count,"T/C endpoint: mean survival time, dose: 200.0 mg/kg/injection, schedule: Q01DX001 (ip), vehicle: saline",0 of 6
same,survivor count,"T/C endpoint: mean survival time, dose: 256.0 mg/kg/injection, schedule: Q01DX001 (oral), vehicle: saline",4 of 10
same,survivor count,"T/C endpoint: mean survival time, dose: 256.0 mg/kg/injection, schedule: Q01DX006 (iv), vehicle: saline",0 of 6
same,survivor count,"T/C endpoint: mean survival time, dose: 400.0 mg/kg/injection, schedule: Q01DX001 (ip), vehicle: saline",0 of 6
same,T/C,"T/C endpoint: median survival time, dose: 0.12 mg/kg/injection, schedule: Q03HX024 (ip), vehicle: water",130 % of control [7 of 8 alive]
same,T/C,"T/C endpoint: median survival time, dose: 0.13 mg/kg/injection, schedule: Q03HX024 (ip), vehicle: water",130 % of control
same,T/C,"T/C endpoint: median survival time, dose: 1.0 mg/kg/injection, schedule: Q03HX024 (ip), vehicle: water, evaluated on day 5",166 and 182 % of control
same,T/C,"T/C endpoint: median survival time, dose: 1.0 mg/kg/injection, schedule: Q03HX024 (ip), vehicle: water, evaluated on day 30",182 % of control
same,T/C,"T/C endpoint: median survival time, dose: 1.0 mg/kg/injection, schedule: Q03HX024 (ip), vehicle: water, evaluated on day 33",166 % of control
same,T/C,"T/C endpoint: median survival time, dose: 2.0 mg/kg/injection, schedule: Q03HX024 (ip), vehicle: water, evaluated on day 5",159 and 171 % of control
same,T/C,"T/C endpoint: median survival time, dose: 2.0 mg/kg/injection, schedule: Q03HX024 (ip), vehicle: water, evaluated on day 30",159 % of control
same,T/C,"T/C endpoint: median survival time, dose: 2.0 mg/kg/injection, schedule: Q03HX024 (ip), vehicle: water, evaluated on day 33",171 % of control
same,T/C,"T/C endpoint: median survival time, dose: 4.0 mg/kg/injection, schedule: Q01DX009 (ip), vehicle: water",130 % of control
same,T/C,"T/C endpoint: median survival time, dose: 4.0 mg/kg/injection, schedule: Q03HX024 (ip), vehicle: water, evaluated on day 5",166 and 168 % of control
same,T/C,"T/C endpoint: median survival time, dose: 4.0 mg/kg/injection, schedule: Q03HX024 (ip), vehicle: water, evaluated on day 30",166 % of control
same,T/C,"T/C endpoint: median survival time, dose: 4.0 mg/kg/injection, schedule: Q03HX024 (ip), vehicle: water, evaluated on day 33",168 % of control [6 of 8 alive]
same,T/C,"T/C endpoint: median survival time, dose: 6.25 mg/kg/injection, schedule: Q01DX009 (ip), vehicle: saline","131, 135 [5 of 6 alive], 137, 140 % of control"
same,T/C,"T/C endpoint: median survival time, dose: 8.0 mg/kg/injection, schedule: Q01DX009 (ip), vehicle: water",140 % of control
same,T/C,"T/C endpoint: median survival time, dose: 8.0 mg/kg/injection, schedule: Q03HX024 (ip), vehicle: water, evaluated on day 5",84 and 130 % of control
same,T/C,"T/C endpoint: median survival time, dose: 8.0 mg/kg/injection, schedule: Q03HX024 (ip), vehicle: water, evaluated on day 33",130 % of control
same,survivor count,"T/C endpoint: median survival time, dose: 8.0 mg/kg/injection, schedule: Q03HX024 (ip), vehicle: water",7 of 8
same,T/C,"T/C endpoint: median survival time, dose: 12.5 mg/kg/injection, schedule: Q01DX009 (ip), vehicle: saline","150 (2×), 156, 165 % of control"
same,T/C,"T/C endpoint: median survival time, dose: 16.0 mg/kg/injection, schedule: Q01DX009 (ip), vehicle: water",135 % of control
same,survivor count,"T/C endpoint: median survival time, dose: 16.0 mg/kg/injection, schedule: Q03HX024 (ip), vehicle: water",5 of 8
same,T/C,"T/C endpoint: median survival time, dose: 25.0 mg/kg/injection, schedule: Q01DX009 (ip), vehicle: saline","90, 100, 137 % of control (2×)"
same,survivor count,"T/C endpoint: median survival time, dose: 32.0 mg/kg/injection, schedule: Q03HX024 (ip), vehicle: water",0 of 8
same,T/C,[1],100 % of control
same,survivor count,[1],"2 of 6, 5 of 6, 6 of 6"
